The test concerns the target ADRB3-mCherry (from pCMV-ADRB3-mCherry) (UniProt P13945). The test can be described thus: co-IP; HEK293T cells transfected with plasmids (LipoMax), collected for coIP; bait, antibodies and buffers not described.

Chains of the proteins cited; added tags and fusions are not shown.
UniProt P13945: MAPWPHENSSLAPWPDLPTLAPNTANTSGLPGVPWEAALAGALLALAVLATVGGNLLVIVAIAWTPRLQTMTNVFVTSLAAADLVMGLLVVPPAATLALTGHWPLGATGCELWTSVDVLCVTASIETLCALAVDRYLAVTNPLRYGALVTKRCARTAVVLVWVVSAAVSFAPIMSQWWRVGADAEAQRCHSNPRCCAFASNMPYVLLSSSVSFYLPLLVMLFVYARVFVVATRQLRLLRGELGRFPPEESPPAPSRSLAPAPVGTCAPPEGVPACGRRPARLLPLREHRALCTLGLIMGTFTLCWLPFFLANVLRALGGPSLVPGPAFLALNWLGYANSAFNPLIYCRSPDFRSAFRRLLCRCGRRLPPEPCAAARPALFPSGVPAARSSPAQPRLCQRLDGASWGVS

No constants are given. Whether binding was seen depends on the method and setting. Binding seen in cells or lysates may run through a third protein. Some entries that bind do so weakly or less than the wild type. Sequences can lack the tags named with a protein.

B1: S100B-eGFP (from pCMV-S100B-eGFP) (protein, UniProt P04271 1-92)
chain: MSELEKAMVALIDVFHQYSGREGDKHKLKKSELKELINNELSHFLEEIKEQEVVDKVMETLDNDGDGECDFQEFMAFVAMVTTACHEFFEHE
With B1, the binding result was “binds”.

Source of the values: PMC12688110.
